Results of single-concentration screens

The chains behind the UniProt entries cited, without tags or fusion partners. Residues count along the entry.
UniProt A4I591, 1-473: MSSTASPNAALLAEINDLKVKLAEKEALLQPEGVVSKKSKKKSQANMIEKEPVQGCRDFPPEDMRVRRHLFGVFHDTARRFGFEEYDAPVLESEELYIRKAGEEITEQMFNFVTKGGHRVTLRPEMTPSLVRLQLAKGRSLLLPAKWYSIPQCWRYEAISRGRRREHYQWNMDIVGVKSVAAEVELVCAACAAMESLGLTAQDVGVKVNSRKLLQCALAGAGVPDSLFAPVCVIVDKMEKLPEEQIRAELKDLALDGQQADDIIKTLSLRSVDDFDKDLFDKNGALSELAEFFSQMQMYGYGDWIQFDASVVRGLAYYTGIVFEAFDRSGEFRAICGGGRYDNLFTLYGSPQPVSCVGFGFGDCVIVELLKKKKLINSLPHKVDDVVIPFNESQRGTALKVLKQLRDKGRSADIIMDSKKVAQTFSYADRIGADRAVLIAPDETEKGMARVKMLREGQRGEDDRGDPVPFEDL
UniProt I6X8D2, whole entry: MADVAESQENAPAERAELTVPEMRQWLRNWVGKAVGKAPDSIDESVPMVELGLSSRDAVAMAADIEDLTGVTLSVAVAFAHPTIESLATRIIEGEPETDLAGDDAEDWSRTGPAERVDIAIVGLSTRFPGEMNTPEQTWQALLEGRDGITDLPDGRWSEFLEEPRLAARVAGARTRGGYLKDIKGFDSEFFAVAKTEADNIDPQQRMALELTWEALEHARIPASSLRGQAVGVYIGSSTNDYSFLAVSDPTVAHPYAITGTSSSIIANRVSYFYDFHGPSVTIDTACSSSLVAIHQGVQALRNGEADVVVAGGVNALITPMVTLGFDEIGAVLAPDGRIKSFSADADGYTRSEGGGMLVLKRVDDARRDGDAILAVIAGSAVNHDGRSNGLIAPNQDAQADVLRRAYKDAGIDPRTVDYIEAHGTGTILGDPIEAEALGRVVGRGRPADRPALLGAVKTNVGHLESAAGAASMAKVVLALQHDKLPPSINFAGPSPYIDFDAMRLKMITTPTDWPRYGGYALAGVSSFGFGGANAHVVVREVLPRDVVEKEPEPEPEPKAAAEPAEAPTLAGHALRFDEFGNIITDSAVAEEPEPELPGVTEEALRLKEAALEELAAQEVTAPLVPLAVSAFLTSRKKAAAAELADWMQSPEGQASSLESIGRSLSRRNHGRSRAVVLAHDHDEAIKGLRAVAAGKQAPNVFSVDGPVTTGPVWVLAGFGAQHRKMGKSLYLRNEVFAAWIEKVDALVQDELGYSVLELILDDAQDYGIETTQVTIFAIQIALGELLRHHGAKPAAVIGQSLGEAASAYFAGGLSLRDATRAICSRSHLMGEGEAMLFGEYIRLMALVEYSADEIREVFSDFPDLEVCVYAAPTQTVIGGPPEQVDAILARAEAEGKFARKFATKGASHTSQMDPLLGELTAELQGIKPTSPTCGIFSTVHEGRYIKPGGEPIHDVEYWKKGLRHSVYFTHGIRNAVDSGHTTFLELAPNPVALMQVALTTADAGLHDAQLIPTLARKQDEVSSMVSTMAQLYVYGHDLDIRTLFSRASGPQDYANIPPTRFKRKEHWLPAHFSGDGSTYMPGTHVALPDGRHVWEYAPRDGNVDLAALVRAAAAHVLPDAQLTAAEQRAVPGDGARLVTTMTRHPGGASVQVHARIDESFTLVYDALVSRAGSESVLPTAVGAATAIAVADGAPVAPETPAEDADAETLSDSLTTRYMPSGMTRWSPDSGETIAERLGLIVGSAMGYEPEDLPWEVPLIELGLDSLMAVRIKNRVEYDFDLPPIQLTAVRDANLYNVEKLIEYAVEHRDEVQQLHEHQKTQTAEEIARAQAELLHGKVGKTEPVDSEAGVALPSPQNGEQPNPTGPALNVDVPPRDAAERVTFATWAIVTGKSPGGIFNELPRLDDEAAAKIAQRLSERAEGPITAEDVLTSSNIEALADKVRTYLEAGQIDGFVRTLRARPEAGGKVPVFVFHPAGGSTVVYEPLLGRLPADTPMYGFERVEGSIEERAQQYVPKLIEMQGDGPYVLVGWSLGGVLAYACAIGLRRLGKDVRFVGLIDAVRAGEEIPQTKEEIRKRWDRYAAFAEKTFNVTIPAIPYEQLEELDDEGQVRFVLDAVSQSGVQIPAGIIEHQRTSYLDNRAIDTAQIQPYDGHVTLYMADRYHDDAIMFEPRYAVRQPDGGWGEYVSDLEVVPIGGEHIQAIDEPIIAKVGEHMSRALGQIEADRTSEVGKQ

Leishmania in macrophages: 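Cell assay of Leishmania donovani living inside macrophages; the read-out is not stated. Concentration: 30 µM. Higher reads as stronger inhibition (inferred: compounds with an IC50 in retests scored well above the rest). Of about 69,000 compounds tested this way, about 1,000 (1.5%) reached 50% or more in at least one test.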
LiHisRS: 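Histidine-tRNA ligase, Leishmania infantum (UniProt A4I591). Enzyme assay of histidyl-tRNA synthetase; the read-out is not stated. Concentration: 30 µM. Direction is inferred from retests: higher values go with stronger inhibition. The assay is labelled LdHisRS but filed under L. infantum. Of about 69,000 compounds tested this way, about 410 (0.6%) reached 50% or more in at least one test.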
Pks13 thioesterase: 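Enzyme assay of the thioesterase domain of polyketide synthase 13; the read-out is not stated. Target: Polyketide synthase Pks13, Mycobacterium tuberculosis (UniProt I6X8D2). Concentration: 30 µM. The record gives no direction; the compounds picked for IC50 retests had high values, so higher reads as stronger inhibition. Of about 67,000 compounds tested this way, about 300 (0.46%) reached 50% or more in at least one test.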

The filed quantity is “Percent Effect” (%).
The controls that fix the scale are not given in the record; negative values are as filed.
Compounds were drawn at random from those tested, without regard to their results.

compound: O=C(O)C(F)(F)F.[H][C@@]12CN(Cc3ccccn3)C[C@]1([H])CN(c1cc(OC)ncn1)C2
Leishmania in macrophages: 13.61

compound: Cn1ccnc1C(=O)N1CCC2(CCCN2CC2CC2)CC1.O=C(O)C(F)(F)F
Leishmania in macrophages: 7.736

compound: CCOc1cc(C)nc(N2CCN(C(=O)c3ccc[nH]3)CC2)n1
Leishmania in macrophages: 9.119
LiHisRS: 9.231
Pks13 thioesterase: -8.903

compound: CCc1nnc2n1CC(CNCc1nc(C)c(C)o1)CC2 (stereo not drawn)
Leishmania in macrophages: -2.486
LiHisRS: 6.306

compound: Cn1nc(COCC2CC2)c2c1CN(CC1CC1)CC2
LiHisRS: 16.98
Pks13 thioesterase: 9.594

compound: CN(CC(=O)NCC(C)(C)c1ccc2c(c1)OCO2)c1cnccn1
Leishmania in macrophages: -15.55
LiHisRS: 12.07
Pks13 thioesterase: -14.96

compound: Cc1ccccc1C(C)CC(=O)N1CC[C@H](O)C1 (stereo partly drawn)
Leishmania in macrophages: 50.74
LiHisRS: 7.692
Pks13 thioesterase: -27.65

compound: Cc1nc(C2CCCN(C(=O)c3cccc4c3OCO4)C2)no1 (stereo not drawn)
Leishmania in macrophages: -2.85
LiHisRS: 13.51
Pks13 thioesterase: -5.796

compound: [H][C@]12CCN(C(=O)c3cnoc3C)[C@@]1([H])CCC(=O)N2CC1CC1
Leishmania in macrophages: 29.38

compound: O=C(CNc1cc(-n2cnnn2)ccc1F)Nc1ccccc1Cl
Leishmania in macrophages: 29.4
LiHisRS: 24.69
Pks13 thioesterase: 6.671

compound: Cn1cccc1C(=O)N1C[C@H]2CN(Cc3cccnc3)C[C@H]2C1
LiHisRS: 7.692
Pks13 thioesterase: -17.7

compound: CN(Cc1cc2n(n1)CCCNC2)Cc1cc(-c2ccncc2)no1
Leishmania in macrophages: 32.69
LiHisRS: 23.94
Pks13 thioesterase: -33.15

compound: [H][C@@]12OCCN(C(=O)c3ccc(F)c(OC)c3)[C@@]1([H])CC[C@H]2OCC1CC1
Leishmania in macrophages: -7.325

compound: O=C(NCCc1nnc2n1CCC2)c1ccccc1OC1CCCC1
Leishmania in macrophages: -4.343
LiHisRS: 12.7
Pks13 thioesterase: -32.27

compound: O=C(Cc1ccccc1)N1CCC(c2nnc(-c3ccccn3)o2)CC1
Leishmania in macrophages: -0.6787
LiHisRS: 8.451
Pks13 thioesterase: -23.39

compound: COC(=O)CCC(=O)N(Cc1ccc2cc[nH]c2c1)C1CC1
Leishmania in macrophages: -2.943
LiHisRS: 15
Pks13 thioesterase: 5.3

compound: O=C1N(Cc2ccc(F)c(F)c2)CCCC12CCN(C1CCCCC1)C2 (stereo not drawn)
Leishmania in macrophages: 29.74
LiHisRS: 28.07
Pks13 thioesterase: 8.755

compound: CC(NC(=O)NCCCn1cccn1)c1ccncc1 (stereo not drawn)
Leishmania in macrophages: 18.66
LiHisRS: 15.18
Pks13 thioesterase: -9.463

compound: Cl.O=C([C@H]1CCCO1)N1CCC2(CC1)CNCc1ccccc12
Leishmania in macrophages: -5.167

compound: Cc1ccsc1CN1CC[C@H]2OCC[C@@]2(C(=O)N2CCCO2)C1
LiHisRS: 18.06
Pks13 thioesterase: -17.66

compound: CCC(C(=O)NCc1ccn(-c2ccc(F)cc2)n1)N1CCCC1=O (stereo not drawn)
Leishmania in macrophages: -1.669
LiHisRS: -5.479
Pks13 thioesterase: -24.22

compound: CNc1nc2c(s1)C(c1cccc(F)c1F)CC(=O)N2 (stereo not drawn)
Leishmania in macrophages: -13.58
LiHisRS: 45.71
Pks13 thioesterase: -30.4

Source: ChEMBL document CHEMBL3988442, “University of Dundee, Small-Polar-MMV Screening Library” (2021).